According to US20230064490A1, “FLUORESCENT PROTEIN BIOSENSOR FOR DETECTION OF KINASE ACTIVITY” (Lucidicor Inc., priority 2018, published 2023):
At least one structure is not confirmed: it was looked up by name or label, or the drawing left a doubt.

Tested on: PKA
Experiment: PKA-PhosFluor fluorescence in transfected HEK-293 cells treated with drug
Format: cell-based, human
Conditions: HEK-293 cells transfected with PKA-PhosFluor; excitation 488 nm, emission 530 nm; 6 hr after addition of drug
Experimental: PKA-PhosFluor and cat_PKA are transcribed from different plasmids maintained by separate antibiotic resistance genes. FIG. 2C and FIG. 2D show charcoal agar plates streaked with E. coli containing the two plasmids indicated in B. The control plate lacks IPTG (FIG. 2C) while the IPTG plate was treated with 1 mM IPTG for 24 hours (FIG. 2D). […] Graphs depict % fluorescence change (excitation 488 nm; emission 530 nm) measured using a microplate reader 6 hr after addition of the indicated drug. Error bars indicate ±SEM (n=6). FIG. 2F is a schematic diagram showing mechanism of action for each drug.
Next, the ability of PKA-PhosFluor to monitor PKA activity in mammalian cells was examined. PKA activity is regulated by the level of cAMP, which itself, is regulated by other signaling pathways and cell growth (Uhler et al., 1986). […] All the drugs used have widely varying mechanisms of action (FIG. 2F).

C=C[C@@]1(C)CC(=O)[C@]2(O)[C@@]3(C)[C@@H](O)CCC(C)(C)[C@@H]3[C@H](O)[C@H](OC(C)=O)[C@@]2(C)O1 [forskolin]
fluorescence of PKA-PhosFluor (% fluorescence change): induced fluorescence
